Data as given in PubChem BioAssay AID1159584 (Peter MacCallum Cancer Centre, 2016)

Aim: 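Genes that CDH1-null MCF10A cells selectively depend on to survive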 (primary screen)
System: human MCF10A breast epithelial cells, parental and CDH1-null
Reagent: siRNA against human genes
Measured: 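ATP luminescence (CellTiter-Glo) viability per line relative to mean mock wells over all plates, and the ratio of CDH1-null to parental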
Reading the numbers: CDH1-null / parental viability ratio: higher = CDH1-null cells survive relatively better than parental; CDH1-null viability vs mock: higher = more viable CDH1-null cells; parental viability vs mock: higher = more viable parental cells
The whole screen tested about 18,000 reagents; this is a part drawn at random. The record does not give: the amount of reagent, the time to read-out.

Target gene	CDH1-null / parental viability ratio	CDH1-null viability vs mock (fraction of mock)	parental viability vs mock (fraction of mock)
IDUA (GeneID 3425)	0.96	0.79	0.82
CAMTA1 (GeneID 23261)	1.05	0.41	0.39
REXO5 (GeneID 81691)	0.82	0.78	0.95
ADAMTS19 (GeneID 171019)	1.07	0.98	0.92
ARHGAP29 (GeneID 9411)	0.62	0.4	0.64
HOXA9 (GeneID 3205)	1.28	0.95	0.74
DCBLD2 (GeneID 131566)	0.85	0.58	0.68
HYDIN (GeneID 54768)	1.24	0.52	0.42
TMEM25 (GeneID 84866)	0.91	0.62	0.68
AMY1C (GeneID 278)	1.25	1.05	0.84
SELENOI (GeneID 85465)	1.11	0.92	0.83
SPHK1 (GeneID 8877)	0.89	0.73	0.82
RPRM (GeneID 56475)	1.19	1.01	0.85
PIGX (GeneID 54965)	1.77	0.55	0.31
ODAD4 (GeneID 83538)	0.88	0.42	0.48
TNNC2 (GeneID 7125)	0.88	0.77	0.88
SLC6A20 (GeneID 54716)	1.05	0.97	0.92
TNXB (GeneID 7148)	0.8	0.41	0.51
MAGOH (GeneID 4116)	1.12	0.72	0.64
WRAP53 (GeneID 55135)	0.73	0.82	1.12
CDC42BPG (GeneID 55561)	0.91	0.68	0.75
TYSND1 (GeneID 219743)	1.12	0.93	0.83
EPHX3 (GeneID 79852)	0.95	0.72	0.76
RPE65 (GeneID 6121)	0.88	0.67	0.76
OR52E4 (GeneID 390081)	0.97	0.64	0.66
OPRM1 (GeneID 4988)	1.54	1.05	0.68
BCL2L15 (GeneID 440603)	0.73	0.63	0.86
SCLT1 (GeneID 132320)	0.79	0.86	1.09
OR5P3 (GeneID 120066)	1.26	0.98	0.78
GSX2 (GeneID 170825)	1.27	0.76	0.6
CNR2 (GeneID 1269)	1.37	0.85	0.62
QTGAL (GeneID 146712)	0.69	0.6	0.87
OGA (GeneID 10724)	1.16	0.85	0.73
PPEF1 (GeneID 5475)	1.23	1.06	0.86
TNMD (GeneID 64102)	1.07	0.8	0.75
PSG5 (GeneID 5673)	1.03	1.27	1.23
SLX1B (GeneID 79008)	0.98	0.88	0.9
NKX2-1 (GeneID 7080)	0.89	0.8	0.9
OR10G3 (GeneID 26533)	1.06	1.02	0.96
PTPRK (GeneID 5796)	1.05	0.86	0.82
OCEL1 (GeneID 79629)	1	0.82	0.82
RFPL1 (GeneID 5988)	0.71	0.8	1.12
ECH1 (GeneID 1891)	1.24	1.17	0.94
AMIGO2 (GeneID 347902)	1.5	0.87	0.58
AIFM1 (GeneID 9131)	0.82	0.54	0.66
STK32B (GeneID 55351)	1.07	0.95	0.89

Records above whose gene name begins with H or h (2):
Target gene	CDH1-null / parental viability ratio	CDH1-null viability vs mock (fraction of mock)	parental viability vs mock (fraction of mock)
HOXA9 (GeneID 3205)	1.28	0.95	0.74
HYDIN (GeneID 54768)	1.24	0.52	0.42
